Test results taken from publication PMC8120205.
Results are given in words; binding and its absence hold for the method and conditions named. Binding seen in cells or lysates may run through a third protein. Some entries that bind do so weakly or less than the wild type.

Sequences of proteins named here, by UniProt entry; tags and fusion partners are left off.
UniProt O14744: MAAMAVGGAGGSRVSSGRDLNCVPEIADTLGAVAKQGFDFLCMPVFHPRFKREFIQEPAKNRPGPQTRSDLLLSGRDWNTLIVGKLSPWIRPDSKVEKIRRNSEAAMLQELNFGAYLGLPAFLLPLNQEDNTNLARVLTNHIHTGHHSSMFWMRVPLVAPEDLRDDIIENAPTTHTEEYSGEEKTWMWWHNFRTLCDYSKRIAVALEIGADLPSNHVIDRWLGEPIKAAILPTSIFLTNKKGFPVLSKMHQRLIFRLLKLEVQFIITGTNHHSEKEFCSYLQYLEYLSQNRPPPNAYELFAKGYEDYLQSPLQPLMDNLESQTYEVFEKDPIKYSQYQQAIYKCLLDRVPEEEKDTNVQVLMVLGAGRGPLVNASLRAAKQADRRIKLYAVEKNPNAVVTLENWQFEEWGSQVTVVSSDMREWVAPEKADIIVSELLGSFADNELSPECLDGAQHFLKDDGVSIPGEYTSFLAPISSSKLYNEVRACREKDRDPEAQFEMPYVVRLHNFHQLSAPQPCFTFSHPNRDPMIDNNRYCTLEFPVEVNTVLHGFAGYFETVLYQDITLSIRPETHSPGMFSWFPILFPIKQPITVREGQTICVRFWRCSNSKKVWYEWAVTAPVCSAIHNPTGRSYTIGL
UniProt Q9BQA1: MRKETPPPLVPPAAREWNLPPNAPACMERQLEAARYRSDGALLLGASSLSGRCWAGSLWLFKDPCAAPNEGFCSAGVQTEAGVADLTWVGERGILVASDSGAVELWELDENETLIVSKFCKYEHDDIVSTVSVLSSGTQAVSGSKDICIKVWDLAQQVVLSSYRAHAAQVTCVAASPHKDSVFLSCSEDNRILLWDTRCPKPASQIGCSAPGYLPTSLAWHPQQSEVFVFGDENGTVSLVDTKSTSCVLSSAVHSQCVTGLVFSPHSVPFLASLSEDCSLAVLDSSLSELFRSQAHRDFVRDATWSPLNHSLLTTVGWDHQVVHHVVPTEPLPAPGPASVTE

T1: Endogenous MYOCD (A549) (human (endogenous in A549)) (UniProt Q8IZQ8)
T1 sequence: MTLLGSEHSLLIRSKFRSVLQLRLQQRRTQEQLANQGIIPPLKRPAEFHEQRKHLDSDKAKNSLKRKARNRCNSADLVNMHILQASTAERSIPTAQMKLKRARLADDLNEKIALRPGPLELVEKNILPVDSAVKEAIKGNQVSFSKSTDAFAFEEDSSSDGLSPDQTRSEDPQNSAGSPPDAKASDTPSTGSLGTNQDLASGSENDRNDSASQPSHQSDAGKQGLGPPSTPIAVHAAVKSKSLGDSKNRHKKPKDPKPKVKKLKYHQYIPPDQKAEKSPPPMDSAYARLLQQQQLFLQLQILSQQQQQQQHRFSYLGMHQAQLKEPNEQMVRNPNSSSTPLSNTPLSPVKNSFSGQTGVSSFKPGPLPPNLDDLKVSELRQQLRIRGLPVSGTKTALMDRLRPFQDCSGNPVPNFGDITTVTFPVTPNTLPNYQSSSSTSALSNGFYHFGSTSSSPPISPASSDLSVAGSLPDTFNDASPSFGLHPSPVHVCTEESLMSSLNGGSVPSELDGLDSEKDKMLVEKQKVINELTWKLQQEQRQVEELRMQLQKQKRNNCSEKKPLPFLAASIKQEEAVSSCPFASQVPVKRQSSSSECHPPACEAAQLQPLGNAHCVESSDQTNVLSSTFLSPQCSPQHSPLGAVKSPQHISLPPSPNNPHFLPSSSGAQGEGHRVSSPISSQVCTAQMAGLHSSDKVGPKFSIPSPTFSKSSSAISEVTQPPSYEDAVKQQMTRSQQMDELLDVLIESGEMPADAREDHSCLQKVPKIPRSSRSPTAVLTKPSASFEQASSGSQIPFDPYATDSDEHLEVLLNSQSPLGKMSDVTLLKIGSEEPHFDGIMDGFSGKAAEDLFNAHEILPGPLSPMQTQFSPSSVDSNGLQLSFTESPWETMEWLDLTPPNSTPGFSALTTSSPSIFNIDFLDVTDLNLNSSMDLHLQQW

T2: MYOCD (co-overexpressed from a plasmid) (UniProt Q8IZQ8)
T2 sequence: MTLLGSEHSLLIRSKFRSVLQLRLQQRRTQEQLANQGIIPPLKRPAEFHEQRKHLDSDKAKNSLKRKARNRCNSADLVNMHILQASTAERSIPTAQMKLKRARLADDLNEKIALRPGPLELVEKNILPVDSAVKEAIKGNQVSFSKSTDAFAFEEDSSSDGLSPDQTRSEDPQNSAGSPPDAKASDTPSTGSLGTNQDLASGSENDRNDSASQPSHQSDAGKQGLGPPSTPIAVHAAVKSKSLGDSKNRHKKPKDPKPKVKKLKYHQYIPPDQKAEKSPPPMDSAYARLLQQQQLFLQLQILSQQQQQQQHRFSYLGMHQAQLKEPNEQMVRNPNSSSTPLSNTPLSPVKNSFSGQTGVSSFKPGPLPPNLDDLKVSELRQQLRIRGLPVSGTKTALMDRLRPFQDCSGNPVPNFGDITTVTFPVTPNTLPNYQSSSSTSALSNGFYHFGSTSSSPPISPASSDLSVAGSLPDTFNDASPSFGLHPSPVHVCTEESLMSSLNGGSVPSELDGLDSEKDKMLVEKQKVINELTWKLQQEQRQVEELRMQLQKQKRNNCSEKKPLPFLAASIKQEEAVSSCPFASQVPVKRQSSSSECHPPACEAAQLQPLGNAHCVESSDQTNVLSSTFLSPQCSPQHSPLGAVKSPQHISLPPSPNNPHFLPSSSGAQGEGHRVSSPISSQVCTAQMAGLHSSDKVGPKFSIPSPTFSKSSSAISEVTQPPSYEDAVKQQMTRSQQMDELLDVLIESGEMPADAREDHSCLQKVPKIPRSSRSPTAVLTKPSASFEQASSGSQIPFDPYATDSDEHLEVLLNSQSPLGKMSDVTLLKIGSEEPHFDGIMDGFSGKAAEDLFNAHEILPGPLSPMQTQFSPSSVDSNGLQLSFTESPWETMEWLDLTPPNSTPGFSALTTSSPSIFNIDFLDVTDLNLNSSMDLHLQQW


Columns and labels:
[1] = target: T1, Endogenous MYOCD (A549) (human (endogenous in A549)); test: co-IP; endogenous proteins; lysate from 5 × 10^7 A549 cells; immunoprecipitation with antibody against each of MYOCD, PRMT5 and MEP50, immunoblot
[2] = target: T2, MYOCD (co-overexpressed from a plasmid); test: co-IP; 293T cells (text: HEK293) transfected with the indicated plasmids (2.5 μg each); coimmunoprecipitation and immunoblot with the indicated antibodies
[3] = target: Endogenous PRMT5 (A549) (human (endogenous in A549)) (UniProt O14744); test: co-IP; endogenous proteins; lysate from 5 × 10^7 A549 cells; immunoprecipitation with antibody against each of MYOCD, PRMT5 and MEP50, immunoblot
[4] = target: Endogenous MEP50 (A549) (human (endogenous in A549)) (UniProt Q9BQA1); test: as above

| Molecule | binding [1] | binding [2] | further results |
| --- | --- | --- | --- |
| Endogenous MEP50 (A549) (from UniProt Q9BQA1 1-342) | binds | – | – |
| PRMT5 (co-overexpressed from a plasmid) (from UniProt O14744 1-637) | – | binds | – |
| Endogenous MYOCD (A549) (protein, UniProt Q8IZQ8 1-938) MTLLGSEHSLLIRSKFRSVLQLRLQQRRTQEQLANQGIIPPLKRPAEFHEQRKHLDSDKAKNSLKRKARNRCNSADLVNMHILQASTAERSIPTAQMKLKRARLADDLNEKIALRPGPLELVEKNILPVDSAVKEAIKGNQVSFSKSTDAFAFEEDSSSDGLSPDQTRSEDPQNSAGSPPDAKASDTPSTGSLGTNQDLASGSENDRNDSASQPSHQSDAGKQGLGPPSTPIAVHAAVKSKSLGDSKNRHKKPKDPKPKVKKLKYHQYIPPDQKAEKSPPPMDSAYARLLQQQQLFLQLQILSQQQQQQQHRFSYLGMHQAQLKEPNEQMVRNPNSSSTPLSNTPLSPVKNSFSGQTGVSSFKPGPLPPNLDDLKVSELRQQLRIRGLPVSGTKTALMDRLRPFQDCSGNPVPNFGDITTVTFPVTPNTLPNYQSSSSTSALSNGFYHFGSTSSSPPISPASSDLSVAGSLPDTFNDASPSFGLHPSPVHVCTEESLMSSLNGGSVPSELDGLDSEKDKMLVEKQKVINELTWKLQQEQRQVEELRMQLQKQKRNNCSEKKPLPFLAASIKQEEAVSSCPFASQVPVKRQSSSSECHPPACEAAQLQPLGNAHCVESSDQTNVLSSTFLSPQCSPQHSPLGAVKSPQHISLPPSPNNPHFLPSSSGAQGEGHRVSSPISSQVCTAQMAGLHSSDKVGPKFSIPSPTFSKSSSAISEVTQPPSYEDAVKQQMTRSQQMDELLDVLIESGEMPADAREDHSCLQKVPKIPRSSRSPTAVLTKPSASFEQASSGSQIPFDPYATDSDEHLEVLLNSQSPLGKMSDVTLLKIGSEEPHFDGIMDGFSGKAAEDLFNAHEILPGPLSPMQTQFSPSSVDSNGLQLSFTESPWETMEWLDLTPPNSTPGFSALTTSSPSIFNIDFLDVTDLNLNSSMDLHLQQW | – | – | binding [3]: binds; binding [4]: binds |

More lines, main results first:

| binding [1] | binding [2] | Molecule | further results |
| --- | --- | --- | --- |
| binds | – | Endogenous PRMT5 (A549) (from UniProt O14744 1-637) | – |
| – | binds | MEP50 (co-overexpressed from a plasmid) (from UniProt Q9BQA1 1-342) | – |
